From article PMC4871480, “A Miniaturized Screen of a Schistosoma mansoni Serotonergic G Protein-Coupled Receptor Identifies Novel Classes of Parasite-Selective Inhibitors” (PLoS Pathogens, 2016)

Chains of the proteins cited; added tags and fusions are not shown.
UniProt G4V5G4, entry or part of it: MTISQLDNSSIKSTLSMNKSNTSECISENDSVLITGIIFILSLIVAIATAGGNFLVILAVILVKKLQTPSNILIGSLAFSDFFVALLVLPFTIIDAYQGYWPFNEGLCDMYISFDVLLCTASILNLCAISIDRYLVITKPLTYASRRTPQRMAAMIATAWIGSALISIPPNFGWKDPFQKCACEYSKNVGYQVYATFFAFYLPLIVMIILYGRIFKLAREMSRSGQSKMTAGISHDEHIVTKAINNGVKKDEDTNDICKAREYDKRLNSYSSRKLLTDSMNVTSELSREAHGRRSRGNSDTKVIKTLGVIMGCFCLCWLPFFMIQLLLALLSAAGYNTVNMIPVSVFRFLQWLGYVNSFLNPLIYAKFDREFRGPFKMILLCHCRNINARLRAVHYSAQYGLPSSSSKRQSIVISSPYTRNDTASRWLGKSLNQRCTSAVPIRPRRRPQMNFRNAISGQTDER
UniProt A0A173FEI8, entry or part of it: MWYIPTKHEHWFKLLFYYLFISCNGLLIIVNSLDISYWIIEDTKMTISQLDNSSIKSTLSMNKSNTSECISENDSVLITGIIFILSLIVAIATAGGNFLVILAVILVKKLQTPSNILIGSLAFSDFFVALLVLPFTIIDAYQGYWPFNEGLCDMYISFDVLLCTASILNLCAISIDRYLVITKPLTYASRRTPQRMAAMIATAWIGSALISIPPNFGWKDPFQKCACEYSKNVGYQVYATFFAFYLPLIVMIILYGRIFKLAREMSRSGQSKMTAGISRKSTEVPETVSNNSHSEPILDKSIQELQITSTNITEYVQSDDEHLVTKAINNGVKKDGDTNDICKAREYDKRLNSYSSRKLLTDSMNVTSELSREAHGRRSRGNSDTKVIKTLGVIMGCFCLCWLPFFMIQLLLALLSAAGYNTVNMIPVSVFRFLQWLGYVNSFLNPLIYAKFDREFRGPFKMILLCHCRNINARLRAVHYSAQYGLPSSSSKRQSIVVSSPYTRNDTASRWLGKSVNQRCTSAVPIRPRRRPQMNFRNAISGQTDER

Tests used:
Format in all cases: cell-based
Sm.5HTR [1] = target: T1, Sm.5HTR (Schistosoma mansoni, UniProt G4V5G4)
Experimental: (§1) HEK293 cells (ATCC CRL-1573.3) were cultured in DMEM supplemented with 10% fetal bovine serum (FBS), penicillin (100 units/ml), streptomycin (100 μg/ml), and L-glutamine (290 μg/ml). Cells were transiently transfected (ViaFect, Promega) as per the manufacturer’s protocol at a density of 2x10^6 cells per T-25 cell-culture flask. Cells were transfected with plasmids encoding GloSensor (Promega) and either Sm.5HTR (Smp_126730, GenBank accession number KF444051.1) or Sm.5HTRL (KX150867), bothGPCRs being codon optimized for mammalian expression, or Hs.5HT7a (GenBank accession number NM_000872.4, R&D Systems) subcloned into pCS2(-). Cell culture reagents were from Invitrogen. Epitope tagged constructs were used to verify expression, and untagged constructs used for all luminescence assays.
For assays performed on adherent cells, HEK-293 cells were transferred one day post transfection to 96 well, solid white plates (Corning, cat # 3917) coated with 0.01% poly-L-lysine (Sigma Aldrich) at a density of 5 x 10^4 cells / well in DMEM supplemented with 1% dialyzed FBS (Gibco). […] Plates were allowed to equilibrate at room temperature for two hours prior to performing luminescence assays (GloMax-Multi Detection System plate reader, Promega). […]

Sm.5HTR [2] = target: T1, Sm.5HTR; assay: Antagonist washout (inactivating antagonist) GloSensor assay on suspension cells
Experimental: To test putative irreversible antagonists, assays on suspension cells were performed one day post transfection. […] Compounds were added at 10 μM, and after 30 minute incubation at room temperature cells were centrifuged (300 RCF, 5 minutes) and resuspended in fresh media. This wash step was repeated, and cells were resuspended in HBSS supplemented with 0.1% BSA, 20mM HEPES and GloSensor reagent. Cells were gently rotated to prevent aggregation and settling over the course of the two hour equilibration period, after which time they were transferred to 96 well plates at a density of 8 x 10^4 cells / 100μL per well and assays described for adherent cells.

Sm.5HTRL = Sm.5HTRL (Schistosoma mansoni, UniProt A0A173FEI8); assay: GloSensor cAMP assay in HEK293 cells expressing Sm.5HTRL; settings: antagonists 10μM, 5-HT EC80 dose
Experimental: as §1
Sequence for Sm.5HTRL was determined by cloning from an Schistosoma mansoni cDNA library (adult male and female NMRI strain, BEI cat #NR-36056) using high fidelity Advantage HD DNA polymerase (Clontech) and primers described in [20]. PCR products were ligated into the pGEM-T Easy vector system (Promega) prior to DNA sequencing. Additional sequence contained in the Sm.5HTRL isoform was verified by 5’/3’ RACE (SMARTer RACE Kit, Clontech) using total RNA extracted from S. mansoni (Trizol reagent, Ambion). Products were cloned into the pRACE vector (In-Fusion HD Cloning Kit, Clontech) prior to DNA sequencing. […]

CCN(CC)C(=O)N[C@H]1C=C2c3cccc4[nH]cc(c34)C[C@H]2N(C)C1 [lisuride]
acute inhibition of 5-HT (10μM) response at Sm.5HTR (Sm.5HTR [1]): Inhibition of 5-HT response
inhibition of Sm.5HTR after antagonist wash-out (Sm.5HTR [2]; 10μM for 30 mins, washout, 5-HT response 1hr later): long-lasting inhibition
potency for Sm.5HTR inhibition after washout (Sm.5HTR [2]; titration, Fig 6E): most potent

Cc1ccccc1C(OCCN(C)C)c1ccccc1 (centres unmarked) [orphenadrine]
selectivity for Sm.5HTR over Hs.5HT7R (Sm.5HTR [1]): clear selectivity for Sm.5HTR
inhibition of 5-HT evoked cAMP generation through Sm.5HTRL (Sm.5HTRL): inhibited 5-HT evoked cAMP generation
